{"sequences": {"note": "Amino acid sequences for entries named in this document (tags omitted). Residues count along the entry.", "UniProt O60603": "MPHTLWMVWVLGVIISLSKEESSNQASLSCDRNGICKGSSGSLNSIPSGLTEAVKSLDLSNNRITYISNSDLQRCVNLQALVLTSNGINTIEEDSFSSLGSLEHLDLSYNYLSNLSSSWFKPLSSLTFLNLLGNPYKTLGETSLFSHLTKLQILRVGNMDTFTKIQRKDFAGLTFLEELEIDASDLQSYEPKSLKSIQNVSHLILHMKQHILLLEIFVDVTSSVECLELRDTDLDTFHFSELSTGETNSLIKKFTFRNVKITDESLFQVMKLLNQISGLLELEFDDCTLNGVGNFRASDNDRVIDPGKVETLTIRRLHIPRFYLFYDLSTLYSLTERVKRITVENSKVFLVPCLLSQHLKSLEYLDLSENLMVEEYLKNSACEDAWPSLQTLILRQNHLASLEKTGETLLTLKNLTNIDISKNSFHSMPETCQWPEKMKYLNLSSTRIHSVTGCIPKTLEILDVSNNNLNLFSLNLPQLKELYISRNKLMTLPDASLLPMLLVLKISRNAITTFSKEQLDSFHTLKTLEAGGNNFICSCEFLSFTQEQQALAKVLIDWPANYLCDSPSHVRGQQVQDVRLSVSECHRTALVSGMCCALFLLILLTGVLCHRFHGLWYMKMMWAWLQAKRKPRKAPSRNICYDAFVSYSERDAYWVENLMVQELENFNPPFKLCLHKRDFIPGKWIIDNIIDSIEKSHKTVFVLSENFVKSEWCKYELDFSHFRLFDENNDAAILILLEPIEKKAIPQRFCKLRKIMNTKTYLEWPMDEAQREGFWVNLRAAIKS", "UniProt P61163": "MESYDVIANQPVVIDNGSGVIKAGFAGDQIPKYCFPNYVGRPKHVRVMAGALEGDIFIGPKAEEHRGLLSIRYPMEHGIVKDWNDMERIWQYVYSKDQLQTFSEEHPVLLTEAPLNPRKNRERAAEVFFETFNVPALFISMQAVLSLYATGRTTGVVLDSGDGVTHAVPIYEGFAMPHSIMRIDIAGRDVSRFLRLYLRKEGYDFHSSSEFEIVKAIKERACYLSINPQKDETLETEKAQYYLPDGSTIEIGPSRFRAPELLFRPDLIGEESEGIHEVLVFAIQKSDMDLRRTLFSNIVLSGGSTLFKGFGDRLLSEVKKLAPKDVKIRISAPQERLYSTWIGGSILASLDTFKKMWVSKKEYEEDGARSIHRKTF", "UniProt P53396": "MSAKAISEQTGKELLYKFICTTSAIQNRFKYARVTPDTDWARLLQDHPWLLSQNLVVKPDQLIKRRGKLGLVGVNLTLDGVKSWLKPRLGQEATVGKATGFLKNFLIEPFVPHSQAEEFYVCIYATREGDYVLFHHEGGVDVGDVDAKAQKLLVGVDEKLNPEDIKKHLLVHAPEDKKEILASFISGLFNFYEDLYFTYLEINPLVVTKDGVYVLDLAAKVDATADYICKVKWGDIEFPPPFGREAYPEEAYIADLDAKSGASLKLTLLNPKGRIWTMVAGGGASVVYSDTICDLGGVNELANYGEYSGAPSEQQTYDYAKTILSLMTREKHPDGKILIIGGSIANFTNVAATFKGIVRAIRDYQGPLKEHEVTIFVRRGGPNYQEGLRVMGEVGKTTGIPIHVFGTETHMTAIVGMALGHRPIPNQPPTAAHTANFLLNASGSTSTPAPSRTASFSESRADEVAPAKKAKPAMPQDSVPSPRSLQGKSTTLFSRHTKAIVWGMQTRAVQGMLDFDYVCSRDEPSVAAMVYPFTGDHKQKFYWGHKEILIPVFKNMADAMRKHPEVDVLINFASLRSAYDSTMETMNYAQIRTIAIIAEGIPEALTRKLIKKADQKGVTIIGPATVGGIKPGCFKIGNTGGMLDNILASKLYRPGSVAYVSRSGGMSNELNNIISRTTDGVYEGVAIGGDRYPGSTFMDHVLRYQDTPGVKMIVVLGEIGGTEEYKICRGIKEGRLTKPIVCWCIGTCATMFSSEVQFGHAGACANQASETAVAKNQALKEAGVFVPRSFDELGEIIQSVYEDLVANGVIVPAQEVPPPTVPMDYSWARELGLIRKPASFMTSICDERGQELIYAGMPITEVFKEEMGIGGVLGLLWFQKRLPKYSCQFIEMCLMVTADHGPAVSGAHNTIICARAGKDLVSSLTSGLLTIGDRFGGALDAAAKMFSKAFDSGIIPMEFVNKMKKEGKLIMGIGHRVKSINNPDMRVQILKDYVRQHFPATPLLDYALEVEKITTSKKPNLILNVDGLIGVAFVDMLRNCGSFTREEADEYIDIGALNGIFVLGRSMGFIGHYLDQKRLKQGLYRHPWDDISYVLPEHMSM", "UniProt P14625, residues 22-803": "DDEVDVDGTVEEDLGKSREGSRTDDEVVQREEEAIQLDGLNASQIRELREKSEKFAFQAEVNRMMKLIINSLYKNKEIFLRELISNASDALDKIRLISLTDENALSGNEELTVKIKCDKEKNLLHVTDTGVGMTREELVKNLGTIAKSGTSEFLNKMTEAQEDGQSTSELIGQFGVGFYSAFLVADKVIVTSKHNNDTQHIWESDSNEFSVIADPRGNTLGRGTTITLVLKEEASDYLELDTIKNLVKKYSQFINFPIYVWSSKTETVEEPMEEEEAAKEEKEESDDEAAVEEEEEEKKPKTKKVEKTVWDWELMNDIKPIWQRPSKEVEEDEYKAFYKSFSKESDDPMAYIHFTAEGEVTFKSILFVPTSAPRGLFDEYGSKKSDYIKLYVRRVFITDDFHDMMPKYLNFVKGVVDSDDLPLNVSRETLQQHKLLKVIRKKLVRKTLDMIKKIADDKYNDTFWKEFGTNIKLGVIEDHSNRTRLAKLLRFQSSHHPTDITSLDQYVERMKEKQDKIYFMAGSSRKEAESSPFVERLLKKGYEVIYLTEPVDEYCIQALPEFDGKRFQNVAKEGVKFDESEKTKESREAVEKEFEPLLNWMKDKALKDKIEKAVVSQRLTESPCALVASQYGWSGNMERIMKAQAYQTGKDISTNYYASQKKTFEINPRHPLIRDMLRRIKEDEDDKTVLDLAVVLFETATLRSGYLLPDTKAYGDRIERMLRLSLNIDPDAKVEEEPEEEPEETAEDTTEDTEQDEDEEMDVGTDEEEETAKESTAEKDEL"}, "source": "paper doi:10.1101/530402", "molecules": {"B1": {"name": "myristoylated alanine-rich C kinase substrate-like protein 1 (protein, UniProt P49006 1-195)", "chain": "MGSQSSKAPRGDVTAEEAAGASPAKANGQENGHVKSNGDLSPKGEGESPPVNGTDEAAGATGDAIEPAPPSQGAEAKGEVPPKETPKKKKKFSFKKPFKLSGLSFKRNRKEGGGDSSASSPTEEEQEQGEIGACSDEGTAQEGKAAATPESQEPQAKGAEASAASEEEAGPQATEPSTPSGPESGPTPASAEQNE"}}, "key": {"[1]": {"molecular_target": "HA-tagged human Toll-like receptor 2 (human) (UniProt O60603)", "experiment": "affinity purification with mass spectrometry"}, "[2]": {"molecular_target": "HA-tagged human Toll-like receptor 2 (human) (UniProt O60603)", "experiment": "affinity purification with mass spectrometry", "remark": "listed apart in the source"}}, "note": "Read-outs that look alike come from different tables or passages of the source. These are yes or no findings as the source states them, for the method shown. Binding seen in cells or lysates may run through a third protein. Here binding means that the protein was enriched with, or labelled near, the bait; the list need not be complete."}
{"molecule": "alpha-centractin (from UniProt P61163 1-376)", "values": [{"measurement": "binding", "setting": "[1]", "result": "binds"}]}
{"molecule": "ATP citrate lyase (from UniProt P53396 1-1101) (enzyme)", "values": [{"measurement": "binding", "setting": "[1]", "result": "binds"}]}
{"molecule": "heat shock protein 90-beta (HSP90B1) (from UniProt P14625 22-803)", "values": [{"measurement": "binding", "setting": "[1]", "result": "binds"}]}
{"molecule": "B1", "values": [{"measurement": "binding", "setting": "[2]", "result": "binds"}]}
